Source: article PMC6529463
These are yes or no findings as the source states them, for the method shown. Binding seen in cells or lysates may run through a third protein. Some binding calls cover weakened binding; strength is not graded here.

Target: T1, α-ENaC (α subunit of the renal epithelial sodium channel) (mouse (endogenous in mpkCCDc14)) (UniProt Q61180)
T1 sequence: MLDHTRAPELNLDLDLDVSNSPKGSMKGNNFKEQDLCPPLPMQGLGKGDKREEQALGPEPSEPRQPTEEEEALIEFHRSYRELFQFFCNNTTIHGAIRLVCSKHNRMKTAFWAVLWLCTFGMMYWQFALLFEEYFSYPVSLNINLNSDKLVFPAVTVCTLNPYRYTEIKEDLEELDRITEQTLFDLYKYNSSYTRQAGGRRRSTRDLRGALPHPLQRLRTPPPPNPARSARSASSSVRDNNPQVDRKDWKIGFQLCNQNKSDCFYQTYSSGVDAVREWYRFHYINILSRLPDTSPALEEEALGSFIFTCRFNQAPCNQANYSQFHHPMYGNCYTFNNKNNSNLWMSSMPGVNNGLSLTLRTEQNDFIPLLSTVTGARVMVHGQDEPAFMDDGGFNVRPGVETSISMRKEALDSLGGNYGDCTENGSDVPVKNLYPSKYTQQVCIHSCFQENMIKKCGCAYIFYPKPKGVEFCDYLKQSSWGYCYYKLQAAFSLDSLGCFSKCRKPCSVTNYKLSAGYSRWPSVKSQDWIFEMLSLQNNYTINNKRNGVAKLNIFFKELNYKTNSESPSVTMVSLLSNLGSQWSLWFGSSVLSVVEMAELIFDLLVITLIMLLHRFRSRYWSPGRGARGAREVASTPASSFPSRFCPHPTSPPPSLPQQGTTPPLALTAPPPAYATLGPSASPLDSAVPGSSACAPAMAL
Test: co-IP; mpkCCDc14 cells with or without E2 (17β-estradiol) stimulation, lysed with NP40 (10 mM Tris-HCl pH 7.4, 10 mM NaCl); 0.5 mg lysate protein with α-ENaC antibody overnight at 4 °C, protein A beads; blotted with derlin-1 antibody

binding: binds
B1: derlin-1 (protein, UniProt Q99J56 1-251)
chain: MSDIGDWFRSIPAITRYWFAATVAVPLIGKLGIISPAYFFLWPEAFLYRFQIWRPFTATFYFPVGPGTGFLYLVNLYFLYQYSTRLEAGAFDGRPADYLFMLLFNWICIVITGLAMDMQLLMIPLIMSVLYVWAQLNRDLIVSFWFGTRFKACYLPWVILGFNYIIGGSVINELIGNLVGHLYFFLMFRYPMDLGGRNFLSTPQFLYRWLPSRRGGVSGFGVPPASMRRAADQNGGGGRHNWGQGFRLGDQ
